The results in this text go back to article PMC10535407.

The target of the series is CcpA (Bacillus licheniformis) (UniProt Q65G28). Description: EMSA. The following applies: recombinant protein; label: biotin (primer Pzwf-Bio-F); probe letters rebuilt from the primers and the genome.

The exact form of at least one protein or probe is not confirmed.

For the sequence “ATATCCTTTCCTCCTGCTAAAAACTTCATCTATCACAAGCATACAGGAAGTCTGAGAAAAAAGAAACGCCGGCTTCACGCCATGCTATGCAACTAAATACCCTGCCCGTTTTCAGTAAACTTTTCATACGATTCGATCTCAAATGTTTGCTTTAAAGGATTATTAGCTTTAAAATGAAGAAAATAAACTTAGCTTCGAATAAAGTGAGGTACGTTTAAT (double strand) [zwF promoter fragment]”, the binding result was “binds”.
